Experimental data as given in PubChem BioAssay AID330 (DTP/NCI, 2004).
The list is a part of this screen's results and no random one: it is rich in T/C values a quarter to a half above the control, in often repeated tests (any T/C) and in doses without a T/C. Further doses and runs are listed elsewhere. T/C: endpoint of the treated group in % of that of the vehicle group. Some doses have a count of surviving animals in place of a T/C: the source files T/C as zero there, which appears to mark a toxic dose or a test without result, not a measured value. Some survivor counts are full or nearly so, which does not show that the dose was tolerated: the source hardly ever lists a survival T/C far under the control, and the zero likely stands for such cases as well. Counts of survivors are from the toxicity check (mostly the fifth day) where no day follows; animals may have died later. Schedules are NCI's codes, read here as Q, the interval in days (D) or hours (H), X, the number of doses. Some entries hold several experiments; the results are listed from low to high. Some molecules as drawn cover several salts, stereoisomers or complexes of the source; a dose is that of the sample tested. Where survival is the endpoint, this PubChem deposit counts one and a half times the control or more as active, and values a quarter to a half above the control carry no call in these data; other NCI protocols may use other cut-offs. Some T/C values carry the count of animals alive at the toxicity check (mostly the fifth day); without a count, all were alive then.

Test system: P388 leukemia ip, CD2F1 mice, survival T/C
Test: NCI In Vivo Anticancer Drug Screen. Data for tumor model P388 Leukemia (intraperitoneal) in CD2F1 (CDF1) mice
Conditions: T/C endpoint: median survival time, higher T/C = longer survival
[1] = dose: 100.0 mg/kg/injection, schedule: Q01DX005 (ip), vehicle: saline with Tween-80
[2] = dose: 200.0 mg/kg/injection, schedule: Q01DX005 (ip), vehicle: saline with Tween-80
[3] = dose: 200.0 mg/kg/injection, schedule: Q01DX009 (ip), vehicle: Klucel (hydroxypropylcellulose) (HPC)
[4] = dose: 50.0 mg/kg/injection, schedule: Q01DX005 (ip), vehicle: saline with Tween-80
[5] = dose: 120.0 mg/kg/injection, schedule: Q01DX005 (ip), vehicle: saline with Tween-80
[6] = dose: 240.0 mg/kg/injection, schedule: Q01DX005 (ip), vehicle: saline with Tween-80
[7] = dose: 200.0 mg/kg/injection, schedule: Q01DX005 (ip), vehicle: saline

## CCCCCC(O)C1C(=O)OC(C)C(O)/C=C/C=C/C=C/C=C/C=C(\C)C(O)C(O)C(O)CC(O)CC(O)CC(O)CC(O)CC1O (centres undefined)
dose: 16.0 mg/kg/injection, schedule: Q01DX010 (ip), vehicle: saline
  survivor count: 3 of 6
dose: 32.0 mg/kg/injection, schedule: Q01DX010 (ip), vehicle: saline
  survivor count: 0 of 6

## CCCCCCC[CH2][Sn]([CH2]C)([CH2]C)[O]C(C)=O
dose: 0.5 mg/kg/injection, schedule: Q01DX009 (ip), vehicle: saline with Tween-80
  survivor count: 2 of 6
dose: 1.0 mg/kg/injection, schedule: Q01DX009 (ip), vehicle: saline with Tween-80
  survivor count: 1 of 6

## NS(=O)(=O)c1cc(S(=O)(=O)Cl)ccc1Cl
[1]
  survivor count: 3 of 6
[2]
  survivor count: 0 of 6

## Fc1ccc(OCCC(Cn2ccnc2)c2ccc(Cl)cc2Cl)cc1 (centres undefined)
dose: 100.0 mg/kg/injection, schedule: Q01DX009 (ip), vehicle: saline with Tween-80
  survivor count: 2 of 6 and 4 of 6
dose: 200.0 mg/kg/injection, schedule: Q01DX009 (ip), vehicle: saline with Tween-80
  survivor count: 1 of 6

## O=C1C=C(c2ccccc2)S(=O)(=O)c2ccc(O)cc21
[2]
  survivor count: 0 of 6

## C[n+]1ccc(C#N)c(C#N)c1
dose: 60.0 mg/kg/injection, schedule: Q01DX005 (ip), vehicle: Klucel (hydroxypropylcellulose) (HPC)
  survivor count: 2 of 6
dose: 120.0 mg/kg/injection, schedule: Q01DX005 (ip), vehicle: Klucel (hydroxypropylcellulose) (HPC)
  survivor count: 0 of 6
dose: 240.0 mg/kg/injection, schedule: Q01DX005 (ip), vehicle: Klucel (hydroxypropylcellulose) (HPC)
  survivor count: 0 of 6

## O=C1CSC(=Nc2ccccc2F)N1c1ccccc1F
[3]
  survivor count: 2 of 6

## O=C(C[n+]1ccn(CC(OCc2ccc(Cl)cc2Cl)c2ccc(Cl)cc2Cl)c1)c1ccc(F)cc1 (centres undefined)
[4]
  survivor count: 0 of 6
[1]
  survivor count: 0 of 6
[2]
  survivor count: 0 of 6

## CC1OC(OC2C(CO)OC(O[C@H]3CC[C@@]4(C)C(=CC[C@H]5[C@@H]6C[C@@H]7O[C@]8(CC[C@@H](C)CN8)[C@@H](C)[C@@H]7[C@@]6(C)CC[C@@H]54)C3)C(O)C2O)C(O)C(O)C1O (some centres undefined)
dose: 100.0 mg/kg/injection, schedule: Q01DX005 (ip), vehicle: acid diluted with saline
  survivor count: 5 of 6
dose: 200.0 mg/kg/injection, schedule: Q01DX005 (ip), vehicle: acid diluted with saline
  survivor count: 3 of 6

## CCN(CC)CC(C)Nc1cc(C)nc2c1ccc1c2ccc2c(NC(C)CN(CC)CC)cc(C)nc21 (centres undefined)
dose: 100.0 mg/kg/injection, schedule: Q01DX009 (ip), vehicle: distilled water + Tween-80
  survivor count: 0 of 6

## Cc1cc(NCCCCCCNc2cc(C)[n+](C)c3c(Cl)cccc23)c2cccc(Cl)c2[n+]1C
[4]
  survivor count: 0 of 5
[1]
  survivor count: 0 of 5
[2]
  survivor count: 0 of 5

## C[n+]1c2cc(N)ccc2cc2ccc(N)cc21
dose: 1.56 mg/kg/injection, schedule: Q01DX005 (ip), vehicle: saline with Tween-80
  T/C: 132 % of control
dose: 1.56 mg/kg/injection, schedule: Q01DX009 (ip), vehicle: saline
  T/C: 131 % of control
dose: 3.12 mg/kg/injection, schedule: Q01DX005 (ip), vehicle: saline with Tween-80
  T/C: 130 % of control
dose: 3.13 mg/kg/injection, schedule: Q01DX009 (ip), vehicle: saline
  T/C: 147 % of control
dose: 6.25 mg/kg/injection, schedule: Q01DX005 (ip), vehicle: saline with Tween-80
  T/C: 142 % of control
dose: 12.5 mg/kg/injection, schedule: Q01DX005 (ip), vehicle: saline with Tween-80
  T/C: 149 % of control
dose: 12.5 mg/kg/injection, schedule: Q01DX005 (ip), vehicle: suspension in saline
  T/C: 126 % of control
dose: 25.0 mg/kg/injection, schedule: Q01DX009 (ip), vehicle: saline
  survivor count: 0 of 6
[4]
  survivor count: 0 of 5
[1]
  survivor count: 0 of 5
[2]
  survivor count: 0 of 5

## CS(=O)(=O)OCC(Br)C(Br)COS(C)(=O)=O (centres undefined)
[3]
  survivor count: 6 of 6

## Cc1ccc(N=Nc2c(-c3ccccc3)nn(C(=S)S)c2C)cc1
dose: 100.0 mg/kg/injection, schedule: Q04DX002 (ip), vehicle: Klucel (hydroxypropylcellulose) (HPC)
  survivor count: 5 of 5

## C=CCN1CCC23c4c5ccc(O)c4OC2C(=NN=C2CCC4(O)C6Cc7ccc(O)c8c7C4(CCN6CC=C)C2O8)CCC3(O)C1C5 (centres undefined)
[5]
  survivor count: 2 of 6
[6]
  survivor count: 0 of 6

## CCOc1ccc(S(=O)(=O)c2ccc(C)cc2)c2c1no[n+]2[O-]
dose: 3.75 mg/kg/injection, schedule: Q01DX009 (ip), vehicle: saline with Tween-80
  survivor count: 6 of 6
dose: 15.0 mg/kg/injection, schedule: Q01DX009 (ip), vehicle: saline with Tween-80
  survivor count: 6 of 6

## OCC[N-]CC[N-]CCO.[Cl][Co][Cl]
dose: 200.0 mg/kg/injection, schedule: Q01DX009 (ip), vehicle: saline
  survivor count: 0 of 6

## CCc1ccc2c(c1)N(CCCN(CCCl)CCCl)c1ccccc1S2
dose: 3.13 mg/kg/injection, schedule: Q01DX009 (ip), vehicle: saline with Tween-80
  T/C: 134 and 138 % of control
dose: 6.25 mg/kg/injection, schedule: Q01DX009 (ip), vehicle: saline with Tween-80
  T/C: 138 and 141 % of control
dose: 12.5 mg/kg/injection, schedule: Q01DX009 (ip), vehicle: saline with Tween-80
  survivor count: 5 of 6 and 6 of 6
dose: 25.0 mg/kg/injection, schedule: Q01DX009 (ip), vehicle: saline with Tween-80
  survivor count: 1 of 6

## CCC1(C(=O)c2ccccc2)C(C(=O)OC)=NC(=N)N=C1C(=O)OC (centres undefined)
[6]
  survivor count: 0 of 6

## CCOC1=C(N2CC2)C(=O)C(OCC)=C(N2CC2)C1=O
dose: 0.63 mg/kg/injection, schedule: Q01DX009 (ip), vehicle: saline
  T/C: 149 % of control

## CS(=O)(=O)OCC1COCC1COS(C)(=O)=O (centres undefined)
dose: 100.0 mg/kg/injection, schedule: Q04DX003 (ip), vehicle: Klucel (hydroxypropylcellulose) (HPC)
  T/C: 125 % of control [5 of 6 alive]
dose: 200.0 mg/kg/injection, schedule: Q04DX003 (ip), vehicle: Klucel (hydroxypropylcellulose) (HPC)
  T/C: 130 % of control
dose: 400.0 mg/kg/injection, schedule: Q04DX003 (ip), vehicle: Klucel (hydroxypropylcellulose) (HPC)
  T/C: 144 % of control

## c1cc2cc(C3=NCCN3)[nH]c2cc1C1=NCCN1
dose: 50.0 mg/kg/injection, schedule: Q01DX005 (ip), vehicle: saline
  survivor count: 5 of 6
dose: 100.0 mg/kg/injection, schedule: Q01DX005 (ip), vehicle: saline
  survivor count: 0 of 6
[7]
  survivor count: 0 of 6

## O=C(CCl)Nc1cccc(CCC(=O)c2ccccc2NC(=O)CCl)c1
[5]
  survivor count: 3 of 6
[6]
  survivor count: 0 of 6

## O=C1CC(=O)N(CCc2ccncc2)C(=O)N1CCc1ccncc1
[7]
  survivor count: 3 of 5

## CC(=O)Nc1ccsc1
[7]
  survivor count: 1 of 6
dose: 400.0 mg/kg/injection, schedule: Q01DX005 (ip), vehicle: saline
  survivor count: 0 of 6

## COC(=O)NC1=Nc2ccc(Cl)cc2NS1
dose: 100.0 mg/kg/injection, schedule: Q01DX005 (ip), vehicle: Klucel (hydroxypropylcellulose) (HPC)
  survivor count: 3 of 5
dose: 200.0 mg/kg/injection, schedule: Q01DX005 (ip), vehicle: Klucel (hydroxypropylcellulose) (HPC)
  survivor count: 0 of 5

## CC(C)[C@](O)(C(=O)OCC1CCN2CC[C@@H](O)C12)[C@H](C)O (some centres undefined)
dose: 325.0 mg/kg/injection, schedule: Q01DX009 (ip), vehicle: saline
  survivor count: 0 of 6
dose: 650.0 mg/kg/injection, schedule: Q01DX009 (ip), vehicle: saline
  survivor count: 0 of 6
dose: 1300.0 mg/kg/injection, schedule: Q01DX009 (ip), vehicle: saline
  survivor count: 0 of 6

## CCN1C(=O)C=CC1=O
dose: 12.5 mg/kg/injection, schedule: Q04DX003 (ip), vehicle: saline with Tween-80
  survivor count: 2 of 6 and 5 of 6
dose: 25.0 mg/kg/injection, schedule: Q04DX003 (ip), vehicle: saline with Tween-80
  survivor count: 0 of 6
